According to CN101123983A:
No constants are given. Whether binding was seen depends on the method and setting. Some binding calls cover weakened binding; strength is not graded here.

The chains behind the UniProt entries cited, without tags or fusion partners. Where a name states a change or a piece, a line headed by the entry shows the natural chain unless it says otherwise.
UniProt P54764: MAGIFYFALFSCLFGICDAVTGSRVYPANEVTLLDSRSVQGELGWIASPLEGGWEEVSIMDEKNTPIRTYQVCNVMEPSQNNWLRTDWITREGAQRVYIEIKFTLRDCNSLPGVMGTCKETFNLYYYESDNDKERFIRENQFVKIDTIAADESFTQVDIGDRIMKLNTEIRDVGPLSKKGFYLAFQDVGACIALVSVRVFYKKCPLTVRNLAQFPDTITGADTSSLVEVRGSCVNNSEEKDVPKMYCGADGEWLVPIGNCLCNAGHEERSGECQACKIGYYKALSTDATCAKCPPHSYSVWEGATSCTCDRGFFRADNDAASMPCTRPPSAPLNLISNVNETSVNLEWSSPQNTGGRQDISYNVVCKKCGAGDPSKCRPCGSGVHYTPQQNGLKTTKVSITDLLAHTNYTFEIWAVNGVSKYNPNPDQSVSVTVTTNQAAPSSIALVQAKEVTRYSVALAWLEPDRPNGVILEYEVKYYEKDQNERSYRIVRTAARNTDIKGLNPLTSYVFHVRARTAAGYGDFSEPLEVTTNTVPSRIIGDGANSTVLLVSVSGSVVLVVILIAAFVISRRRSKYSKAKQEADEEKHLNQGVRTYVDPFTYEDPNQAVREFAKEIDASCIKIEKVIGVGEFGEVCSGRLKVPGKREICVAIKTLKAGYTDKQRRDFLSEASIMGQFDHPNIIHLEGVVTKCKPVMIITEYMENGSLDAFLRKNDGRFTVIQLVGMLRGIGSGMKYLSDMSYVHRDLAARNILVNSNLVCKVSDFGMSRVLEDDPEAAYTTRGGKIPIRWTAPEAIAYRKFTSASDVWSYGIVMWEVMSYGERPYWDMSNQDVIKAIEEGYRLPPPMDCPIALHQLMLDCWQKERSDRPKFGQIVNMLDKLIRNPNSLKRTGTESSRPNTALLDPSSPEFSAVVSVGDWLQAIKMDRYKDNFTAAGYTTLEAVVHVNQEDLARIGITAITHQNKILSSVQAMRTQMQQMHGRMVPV

Molecular target: 人EphA4-His融合蛋白 (human EphA4 extracellular domain fused to a histidine tag) (human) (UniProt P54764)
Test: secondary screen of combination variant Fabs: activity ELISA on coated human EphA4-His, normalised by Fab quantitation ELISA

B1: 8B4 (Fab, V domains shown)
VH: QVQLLQSGAEVKKPGASVKVPCKASGYTFTSRAMSWVRQAPGQGLEWMGWINTNTGNPTYAQGFTGRFVFSLDTSVSTAYLQISSLKAEDTAVYYCARVRLTVYGDGMDVWGQGTLVTVSS
VL: EIVLTQSPATLSVSPGERATLSCRASQSVSSNPAWYQQKPGQAPRLLIYGLSTRATGIPDRFSASGSGTDFTLTISRVEPEDFAVYYCQQYGPSWTFGQGTKVEIK
- binding: binds
